Test results from paper doi:10.1101/2021.08.22.457263.
No constants are given. Whether binding was seen depends on the method and setting. In cells and extracts the contact can be indirect. Here binding means that the protein was enriched with, or labelled near, the bait; the list need not be complete. Tags and fused reporters may be left off the sequences shown.

Target: T1, M. catarrhalis transferrin binding protein B with C-terminal flag-tag (Mcat TbpB-flag) (Moraxella catarrhalis) (UniProt P0DTW7)
T1 sequence (chain, lipidated): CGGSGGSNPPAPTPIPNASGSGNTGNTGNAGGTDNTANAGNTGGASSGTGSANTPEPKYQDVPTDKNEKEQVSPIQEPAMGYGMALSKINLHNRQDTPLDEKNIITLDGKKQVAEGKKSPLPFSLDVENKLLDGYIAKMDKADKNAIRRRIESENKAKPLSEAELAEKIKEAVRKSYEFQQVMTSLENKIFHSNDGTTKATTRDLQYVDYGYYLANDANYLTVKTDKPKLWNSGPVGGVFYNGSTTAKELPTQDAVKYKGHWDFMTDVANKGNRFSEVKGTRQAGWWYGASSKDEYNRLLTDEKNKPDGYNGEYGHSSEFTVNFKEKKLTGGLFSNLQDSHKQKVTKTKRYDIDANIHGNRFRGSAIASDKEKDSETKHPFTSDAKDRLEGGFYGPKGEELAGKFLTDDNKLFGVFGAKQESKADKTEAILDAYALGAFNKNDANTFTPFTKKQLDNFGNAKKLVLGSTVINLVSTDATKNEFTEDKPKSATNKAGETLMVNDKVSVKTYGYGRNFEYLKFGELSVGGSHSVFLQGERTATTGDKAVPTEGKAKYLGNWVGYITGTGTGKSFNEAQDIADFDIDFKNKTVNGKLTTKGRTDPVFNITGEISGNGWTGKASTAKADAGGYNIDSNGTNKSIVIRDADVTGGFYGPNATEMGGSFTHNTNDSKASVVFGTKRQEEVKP
Test: affinity purification with mass spectrometry

Binder | binding
Periplasmic chaperone Skp of E. coli, endogenous (protein, UniProt P0AEU7 21-161) ADKIAIVNMGSLFQQVAQKTGVSNTLENEFKGRASELQRMETDLQAKMKKLQSMKAGSDRTKLEKDVMAQRQTFAQKAQAFEQDRARRSNEERGKLVTRIQTAVKSVANSQDIDLVVDANAVAYNSSDVKDITADVLKQVK | binds
His-tagged E. coli LolA, purified (protein, UniProt P61316 22-203) DAASDLKSRLDKVSSFHASFTQKVTDGSGAAVQEGQGDLWVKRPNLFNWHMTQPDESILVSDGKTLWFYNPFVEQATATWLKDATGNTPFMLIARNQSSDWQQYNIKQNGDDFVLTPKASNGNLKQFTINVGRDGTIHQFSAVEQDDQRSSYQLKSQQNGAVDAAKFTFTPPQGVTVDDQRK | binds
